The source of these data is the supplement of paper PMC8728848.

The other results are listed elsewhere or left out.

Common to all, as to experiment: glycan array binding signal (z-score within array); higher = stronger binding
Holding throughout (settings): glycan notation: IUPAC condensed, linker removed

Test [1] addresses Gal(b1-4)GlcNAc(b1-2)Man(a1-6)[Man(a1-3)]Man(b1-4)GlcNAc(b1-4)GlcNAc. The method, boiled down: (§1)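 The binding signal is a Z-score computed within each array. Data were drawn from 3228 arrays in the Consortium for Functional Glycomics database, restricted to those with a known protein sequence. Scores were averaged over arrays of the same protein sequence at different concentrations or buffers, and over linkers, and negative values can be taken as non-binding.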

Test [2] concerns the target Gal(b1-4)GlcNAc(b1-2)[Gal(b1-4)GlcNAc(b1-4)]Man(a1-3)[Gal(b1-4)GlcNAc(b1-2)Man(a1-6)]Man(b1-4)GlcNAc(b1-4)GlcNAc. The method, boiled down: as §1
In test [3] the target is Gal(b1-4)GlcNAc(b1-2)[Gal(b1-4)GlcNAc(b1-4)]Man(a1-3)[Gal(b1-4)GlcNAc(b1-2)[Gal(b1-4)GlcNAc(b1-6)]Man(a1-6)]Man(b1-4)GlcNAc(b1-4)GlcNAc. The method, boiled down: as §1
The target of test [4] is Gal(b1-4)GlcNAc(b1-2)[Gal(b1-4)GlcNAc(b1-4)]Man(a1-3)[GlcNAc(b1-4)][Gal(b1-4)GlcNAc(b1-2)Man(a1-6)]Man(b1-4)GlcNAc(b1-4)GlcNAc. The method in brief:
as §1

Test [5] addresses Gal(b1-4)GlcNAc(b1-2)[Gal(b1-4)GlcNAc(b1-4)]Man(a1-3)[GlcNAc(b1-4)][Gal(b1-4)GlcNAc(b1-2)[Gal(b1-4)GlcNAc(b1-6)]Man(a1-6)]Man(b1-4)GlcNAc(b1-4)GlcNAc. The method, boiled down:
as §1

Test [6] concerns the target Gal(b1-4)GlcNAc(b1-2)[Gal(b1-4)GlcNAc(b1-6)]Man(a1-6)[Gal(b1-4)GlcNAc(b1-2)Man(a1-3)]Man(b1-4)GlcNAc(b1-4)GlcNAc. The method in brief:
as §1

Test [7] addresses Gal(b1-4)GlcNAc(b1-2)[Gal(b1-4)GlcNAc(b1-6)]Man(a1-6)[Gal(b1-4)GlcNAc(b1-2)Man(a1-3)]Man(b1-4)GlcNAc(b1-4)[Fuc(a1-6)]GlcNAc. The method, boiled down:
as §1

In test [8] the target is Gal(b1-4)GlcNAc(b1-2)[Gal(b1-4)GlcNAc(b1-6)]Man(a1-6)[GlcNAc(b1-4)][Gal(b1-4)GlcNAc(b1-2)Man(a1-3)]Man(b1-4)GlcNAc(b1-4)GlcNAc. The method, boiled down: as §1
In test [9] the target is Gal(b1-4)GlcNAc(b1-2)[Gal(b1-4)GlcNAc(b1-6)]Man(a1-6)[GlcNAc(b1-4)][Gal(b1-4)GlcNAc(b1-2)[Gal(b1-4)GlcNAc(b1-4)]Man(a1-3)]Man(b1-4)GlcNAc(b1-4)[Fuc(a1-6)]GlcNAc. The method in brief: as §1
The target of test [10] is Gal(b1-4)GlcNAc(b1-3)Gal(b1-3)GalNAc. The method in brief: as §1
The target in test [11] is Gal(b1-4)GlcNAc(b1-3)Gal(b1-3)GlcNAc. The method in brief:
as §1

Test [12] addresses Gal(b1-4)GlcNAc(b1-3)Gal(b1-4)Glc. The method, boiled down: as §1
Test [13] concerns the target Gal(b1-4)GlcNAc(b1-3)Gal(b1-4)GlcNAc. The method in brief:
as §1

In test [14] the target is Gal(b1-4)GlcNAc(b1-3)Gal(b1-4)GlcNAc(b1-2)Man(a1-3)[Gal(b1-4)GlcNAc(b1-3)Gal(b1-4)GlcNAc(b1-2)Man(a1-6)]Man(b1-4)GlcNAc(b1-4)GlcNAc. The method, boiled down: as §1
The target in test [15] is Gal(b1-4)GlcNAc(b1-3)Gal(b1-4)GlcNAc(b1-2)Man(a1-3)[Gal(b1-4)GlcNAc(b1-3)Gal(b1-4)GlcNAc(b1-2)Man(a1-6)]Man(b1-4)GlcNAc(b1-4)[Fuc(a1-6)]GlcNAc. The method, boiled down:
as §1

In test [16] the target is Gal(b1-4)GlcNAc(b1-3)Gal(b1-4)GlcNAc(b1-2)[Gal(b1-4)GlcNAc(b1-3)Gal(b1-4)GlcNAc(b1-6)]Man(a1-6)[Gal(b1-4)GlcNAc(b1-3)Gal(b1-4)GlcNAc(b1-2)Man(a1-3)]Man(b1-4)GlcNAc(b1-4)GlcNAc. The method, boiled down: as §1
Test [17] addresses Gal(b1-4)GlcNAc(b1-3)Gal(b1-4)GlcNAc(b1-2)[Gal(b1-4)GlcNAc(b1-3)Gal(b1-4)GlcNAc(b1-6)]Man(a1-6)[Gal(b1-4)GlcNAc(b1-3)Gal(b1-4)GlcNAc(b1-2)Man(a1-3)]Man(b1-4)GlcNAc(b1-4)[Fuc(a1-6)]GlcNAc. The method in brief:
as §1

The target of test [18] is Gal(b1-4)GlcNAc(b1-3)Gal(b1-4)GlcNAc(b1-3)Gal(b1-4)GlcNAc. The method in brief: as §1
Test [19] has as its target Gal(b1-4)GlcNAc(b1-3)Gal(b1-4)GlcNAc(b1-3)Gal(b1-4)GlcNAc(b1-2)Man(a1-3)[Gal(b1-4)GlcNAc(b1-3)Gal(b1-4)GlcNAc(b1-3)Gal(b1-4)GlcNAc(b1-2)Man(a1-6)]Man(b1-4)GlcNAc(b1-4)GlcNAc. The method in brief:
as §1

Test [20] deals with Gal(b1-4)GlcNAc(b1-3)Gal(b1-4)GlcNAc(b1-3)Gal(b1-4)GlcNAc(b1-2)Man(a1-3)[Gal(b1-4)GlcNAc(b1-3)Gal(b1-4)GlcNAc(b1-3)Gal(b1-4)GlcNAc(b1-2)Man(a1-6)]Man(b1-4)GlcNAc(b1-4)[Fuc(a1-6)]GlcNAc. The method in brief: as §1
Test [21] concerns the target Gal(b1-4)GlcNAc(b1-3)Gal(b1-4)GlcNAc(b1-3)Gal(b1-4)GlcNAc(b1-2)[Gal(b1-4)GlcNAc(b1-3)Gal(b1-4)GlcNAc(b1-3)Gal(b1-4)GlcNAc(b1-6)]Man(a1-6)[Gal(b1-4)GlcNAc(b1-3)Gal(b1-4)GlcNAc(b1-3)Gal(b1-4)GlcNAc(b1-2)Man(a1-3)]Man(b1-4)GlcNAc(b1-4)[Fuc(a1-6)]GlcNAc. The method in brief:
as §1

Test [22] has as its target Gal(b1-4)GlcNAc(b1-3)Gal(b1-4)GlcNAc(b1-3)Gal(b1-4)GlcNAc(b1-3)Gal(b1-4)GlcNAc(b1-2)Man(a1-3)[Gal(b1-4)GlcNAc(b1-3)Gal(b1-4)GlcNAc(b1-3)Gal(b1-4)GlcNAc(b1-3)Gal(b1-4)GlcNAc(b1-2)Man(a1-6)]Man(b1-4)GlcNAc(b1-4)GlcNAc. The method in brief:
as §1

B1: Loc1 (Escherichia coli) (protein)
chain: APCALTNVGEQRGTYILKPLSMKGNLTAEKIENTGNIIECTDLQETTNAIKVHFLTQNALKFKVGSRHYIINFPFEYDGKKIELPGKSSYNLEEMLSAINFTIPYSIASVSDSSNTADIFPGTPFPLLFEIEVSSCTGNNTNCNSVRFNYNLNTILQVNLMTHHHHHH
On to B1, for which the “glycan array binding signal (z-score)” value in test [1] was 1.03; in test [2] it was -0.504; in test [3] it was -0.441; in [4], -0.473; in [5], -0.38; in test [6], -0.148. Also, the “glycan array binding signal (z-score)” value is -0.213 in [7]; 0.016 in test [8]; 0.242 in [9]; 0.355 in test [10]; 0.195 in test [11]; 0.057 in [12]. Also, the “glycan array binding signal (z-score)” value in [13] is 0.267; in [14], 0.193; in [15] it was -0.121; in [16], 1.74; in test [17], 2.29; in test [18], -1.06. For the same molecule, the “glycan array binding signal (z-score)” value in test [19] turned out to be 0.862; in test [20], 0.598; in [21], 1.02; in test [22], 0.053.
